PubChem BioAssay AID1224826 | NIAID, 2016
Purpose: 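Regulators of Tlr4 signalling leading to Tnf-alpha expression in macrophages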 (primary screen). Cell system: RAW264.7 G9 macrophages from mouse bearing reporters for p65 (GFP) and the Tnf promoter (mCherry). Knock-down reagent: siRNA pool against mouse genes, 100 nM. Duration: 16 h of LPS stimulation, after 2 days of siRNA transfection. Conditions: bacterial lipopolysaccharide (Salmonella minnesota R595), 10 ng/ml. Detection: 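Nuclear mCherry signal of the Tnf promoter reporter measured by imaging after background removal, scaled to each plate median and turned into robust z-scores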. Direction: Tnf reporter robust z-score: higher = stronger Tnf promoter reporter signal after LPS; Tnf reporter intensity: higher = stronger Tnf promoter reporter signal. Call rule: 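a well counts as active at a score of -1.3 or below (Tlr4 knock-down control median) or above 3 (raised signal); controls and wells holding fewer than 50 cells are excluded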. Meaning of the calls: active = Tnf reporter clearly lowered or raised; inactive = no clear change in Tnf reporter.
This is a random part of about 17,000 reagents. About 1,110 of them (6.6%) count as active. 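Active means lowered or raised reporter signal; replicate intensities are raw and not normalised per plate.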 A number with no mark means an inactive call. Reagents against one gene are numbered here. Further read-outs or replicates are left out here.

no.	gene	reagent	Tnf reporter robust z-score	fewer than 50 cells in well	Tnf reporter intensity, replicate 1
1	Trp63	1	-0.11	enough cells in well	236
2	Prl2c4	1	-0.2	enough cells in well	236
3	H2-T22	1	2.16	enough cells in well	362
4	H2-T22	2	-1.6 (active)	enough cells in well	115
5	H2-T22	3	-0.43	enough cells in well	234
6	Exd1	1	1.12	enough cells in well	277
7	Reg3g	1	1.63	enough cells in well	141
8	Sh3gl2	1	0.12	enough cells in well	280
9	Zmym1	1	0.2	enough cells in well	122
10	Sdcbp2	1	0.99	enough cells in well	183
11	Vmn1r70	1	0.15	enough cells in well	339
12	Msra	1	0.33	enough cells in well	290
13	Cobll1	1	-0.51	enough cells in well	128
14	Bcl9l	1		fewer than 50 cells per well; well left out of calls	7.73
15	Dnali1	1	0.07	enough cells in well	181
16	Pinx1	1	-1.32 (active)	enough cells in well	119
17	Vmn1r230	1	0.37	enough cells in well	298
18	Jph2	1	1.77	enough cells in well	298
19	Xrcc3	1	-0.15	enough cells in well	202
20	Pdia2	1	0.07	enough cells in well	273
21	Slc2a4	1	0.02	enough cells in well	265
22	Washc5	1	-0.01	enough cells in well	188
23	Cltb	1	-0.89	enough cells in well	168
24	Asgr2	1	-0.2	enough cells in well	113
25	Ctnna2	1	0.03	enough cells in well	247
26	Ankrd34b	1	0.7	enough cells in well	218
27	Ikzf3	1	0.07	enough cells in well	225
28	Ncoa5	1	-1.11	enough cells in well	180
29	Kdf1	1	-0.64	enough cells in well	131
30	Rap2a	1		fewer than 50 cells per well; well left out of calls	106
31	Etd	1	-1.38 (active)	enough cells in well	130
32	Yju2b	1	-0.09	enough cells in well	201
33	Cdk17	1	1.02	enough cells in well	256
34	Pik3r1	1	-0.69	enough cells in well	140
35	Krt85	1	0.28	enough cells in well	197
36	Hcls1	1	-0.05	enough cells in well	209
37	Emcn	1	-1.47 (active)	enough cells in well	99
38	Zpbp	1		fewer than 50 cells per well; well left out of calls	46.9
39	Ptpro	1	0.57	enough cells in well	380
40	Vwa7	1	0.54	enough cells in well	267
41	Mybl1	1	-0.44	enough cells in well	224
42	Klrk1	1		fewer than 50 cells per well; well left out of calls	184
43	Arl3	1	-0.24	enough cells in well	160
44	Rfng	1	0.39	enough cells in well	155
45	Hhip	1	-0.76	enough cells in well	172
46	Or6c8	1	-0.34	enough cells in well	123
47	Or6c8	2		fewer than 50 cells per well; well left out of calls	53.7
48	Klra3	1	0.27	enough cells in well	270
49	Trmt2b	1		fewer than 50 cells per well; well left out of calls	322
50	Epn1	1	-1.02	enough cells in well	190
51	Klk11	1	0.98	enough cells in well	206
52	Stambpl1	1	-0.51	enough cells in well	138
53	Arhgef4	1	2.14	enough cells in well	341
54	Arhgef4	2	-0.15	enough cells in well	89.3
55	Sppl2b	1	0.1	enough cells in well	180
56	Exoc8	1	-0.21	enough cells in well	205
57	Terb1	1	-0.27	enough cells in well	138
58	Rhbdd2	1		fewer than 50 cells per well; well left out of calls	54.1
59	Rhbdd2	2		fewer than 50 cells per well; well left out of calls	221

In a second layout: 9 of the entries above.
gene	reagent	Tnf reporter robust z-score	fewer than 50 cells in well	Tnf reporter intensity, replicate 1
Or6c8	2		fewer than 50 cells per well; well left out of calls	53.7
Klra3	1	0.27	enough cells in well	270
Trmt2b	1		fewer than 50 cells per well; well left out of calls	322
Epn1	1	-1.02	enough cells in well	190
Klk11	1	0.98	enough cells in well	206
Stambpl1	1	-0.51	enough cells in well	138
Arhgef4	1	2.14	enough cells in well	341
Arhgef4	2	-0.15	enough cells in well	89.3
Sppl2b	1	0.1	enough cells in well	180
